For one molecule, binding results are on record in publication doi:10.1101/2021.06.16.448340 (bioRxiv, 2021).

No constants are given. Whether binding was seen depends on the method and setting. Some binding calls cover weakened binding; strength is not graded here.

Assay [1] addresses T1, QcrA, Rieske iron-sulfur (FeS) protein subunit of complex III (Corynebacterium glutamicum) (UniProt Q79VE8).
T1 sequence: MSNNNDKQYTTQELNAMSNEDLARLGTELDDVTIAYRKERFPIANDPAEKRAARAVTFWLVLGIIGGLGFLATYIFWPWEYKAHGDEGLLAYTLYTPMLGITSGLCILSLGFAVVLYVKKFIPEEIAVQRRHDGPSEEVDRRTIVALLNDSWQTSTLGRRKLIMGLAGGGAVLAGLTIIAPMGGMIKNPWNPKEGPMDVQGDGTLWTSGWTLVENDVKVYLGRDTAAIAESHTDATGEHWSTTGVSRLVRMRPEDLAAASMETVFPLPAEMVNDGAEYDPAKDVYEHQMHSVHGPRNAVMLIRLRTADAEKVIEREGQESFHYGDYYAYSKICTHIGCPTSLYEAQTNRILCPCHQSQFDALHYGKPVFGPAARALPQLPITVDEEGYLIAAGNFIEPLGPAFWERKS
Description: cryo-EM structure.

The target in assay [2] is T2, QcrB, cytochrome b subunit of complex III (Corynebacterium glutamicum) (UniProt Q79VE9).
T2 sequence: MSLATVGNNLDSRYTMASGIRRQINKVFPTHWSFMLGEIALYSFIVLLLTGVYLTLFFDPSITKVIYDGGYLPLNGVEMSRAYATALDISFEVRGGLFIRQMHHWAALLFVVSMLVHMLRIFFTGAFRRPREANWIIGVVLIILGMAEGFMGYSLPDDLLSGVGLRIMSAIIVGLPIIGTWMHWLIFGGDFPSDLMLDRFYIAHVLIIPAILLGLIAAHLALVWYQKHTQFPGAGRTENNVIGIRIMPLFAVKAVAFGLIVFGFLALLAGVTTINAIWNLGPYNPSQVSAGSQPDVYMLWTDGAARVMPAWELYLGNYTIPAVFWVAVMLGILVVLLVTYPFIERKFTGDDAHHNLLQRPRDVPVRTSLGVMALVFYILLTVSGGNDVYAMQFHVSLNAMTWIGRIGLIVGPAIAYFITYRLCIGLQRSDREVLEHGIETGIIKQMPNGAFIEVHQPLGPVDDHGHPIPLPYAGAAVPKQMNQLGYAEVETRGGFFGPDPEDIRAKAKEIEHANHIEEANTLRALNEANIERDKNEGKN
Description: cryo-EM structure.

B1: QcrC, di-heme cyt. cc subunit of complex III (protein, UniProt Q8NNK5 1-283)
chain: MAKPSAKKVKNRRKVRRTVAGALALTIGLSGAGILATAITPDAQVATAQRDDQALISEGKDLYDVACITCHGVNLQGVEDRGPSLVGVGEGAVYFQVHSGRMPILRNEAQAERKAPRYTEAQTLAIAAYVAANGGGPGLVYNEDGTLAMEELRGENYDGQITSADVARGGDLFRLNCASCHNFTGRGGALSSGKYAPNLDAANEQEIYQAMLTGPQNMPKFSDRQLSADEKKDIIAFIKSTKETPSPGGYSLGSLGPVAEGLFMWVFGILVLVAAAMWIGSRS
In the case of B1, the binding entry in assay [1] and in assay [2] was “binds” in each case.
